The whole screen tested about 31,000 sequences, of which about 1,400 (4.5%) were called active.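 How the source made its calls: active means median seed-adjusted z-score above 1 or below -1; inactive means the rest.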 The list shows a part of the results.

The assay is described as follows: Novel Modifiers of Survival Motor Neuron (SMN) Protein: Gene Identification via Genome-wide siRNA Screen.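 Further: luminescence tracks full-length SMN protein made from the SMN2 reporter.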 The conditions noted are these: HEK293T SMN2-luciferase reporter, siRNA knockdown, 72 h; actives lie on both sides. The method, boiled down: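 Luciferase signal, proportional to full-length SMN made from an SMN2 cDNA reporter in stable HEK293T cells, was read 72 h after siRNA reverse transfection. Values were expressed as MAD scores after non-targeting-control normalization and log10 conversion; seed analysis flagged off-targets.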
A general note: Reporter assays use an easily measured gene product as a stand-in for the process of interest.
Consider CAAGGAUGUUUAAAAUCUATT against FAS, for which the median seed-adjusted z-score was inactive: -0.377.
GGUUUGCCCUUAUCUUGUATT against RDH10: the median seed-adjusted z-score was inactive: -0.28.
GAUGAAGAGUGACUUGUUUTT against PKD1: the median seed-adjusted z-score was inactive: -0.228.
With CGAUCGAGUGGAUGAAGAATT against MMP24, the median seed-adjusted z-score is active: -1.28.
The result for CCUCCAACGUAUCAUGAGATT against CYP7A1 reads inactive: -0.0092; that for GGAACUACAUCUUCGAGAUTT against LRRC33, inactive: -0.194; that for CCAUGGAUGCUCCUCUGAATT against PLAUR, inactive: -0.118.
For ACUGAUUGCUUGGAUUAUATT against OTX2, the median seed-adjusted z-score was inactive: -0.00351.
Regarding GCAUGGAGGUGGUCUAUGATT against MKRN1, the median seed-adjusted z-score is inactive: -0.496.
On to GGACAGGAAGAUACAAGAATT against GPR113, for which the median seed-adjusted z-score is inactive: -0.434.
For CAAACAGCACUAUUUCAUUTT against KCTD1, the median seed-adjusted z-score is inactive: 0.
For CAGGCAAAAAGAAGCAUUATT against PADI1, the median seed-adjusted z-score was inactive: 0.
On to CCAGCUCCACGAAAAAGAATT against ZNF395, for which the median seed-adjusted z-score was inactive: -0.0986.
With CCGUGAAGUUCGACCCGUATT against TH the figure was inactive: -0.878; with CCCUCCAAAUCUGAGAUUUTT against KIF17, inactive: -0.151.
With CCCUAGAUUGUCUUACAUUTT against LRRN3, the median seed-adjusted z-score is inactive: 0.
With GAACCAAGCUUGGAUCAGATT against ACAA2 the figure was inactive: 0.435.
The result for CCUUAUUGGAAAGAUCCAATT against TXNDC17 reads inactive: 0.245.
Take CAAUGUCUUCUCCAACUUUTT against MYL5: the median seed-adjusted z-score was inactive: 0.097.
Regarding GGACACCAAGAAUUACUUUTT against LSS, the median seed-adjusted z-score is inactive: -0.302.
With CGACAAGUCUGACAGGGAUTT against PQBP1, the median seed-adjusted z-score was active: -1.12.
For the sequence CCACUGACACCAUACGUAATT against PLCB4, the median seed-adjusted z-score is inactive: -0.521.
In the case of CGUGCCCAAUUAUCAGAGATT against CARD10, the median seed-adjusted z-score is inactive: -0.929.
For the sequence CUUGGAUACAGAUACGUUUTT against TLK1, the median seed-adjusted z-score was inactive: -0.0133.
As to GGAUUCCACCUACCCUAUUTT against STT3A, the median seed-adjusted z-score was inactive: 0.
Turning to CGUUAUCUUCAUCACCUAUTT against ABCC10, the median seed-adjusted z-score is active: -1.56.
With CUACCGAGUUGUUAUAAGATT against ZNF300, the median seed-adjusted z-score was inactive: -0.302.
For CCAUGAUCCUGAUAGGCAATT against PLAT, the median seed-adjusted z-score was inactive: 0.246.
With CGCGAUCAGUACGACUUUATT against EHHADH the figure was inactive: 0.0626; with GGUCGACAGUUUUCACAGATT against PPFIA1, inactive: 0.312.
The result for GCAGCUACAAAAACAGCUATT against MED4 reads inactive: -0.632; that for GGAUGAUGUGAGGCAUAAATT against GPR107, inactive: 0; that for CACCGGCACUUUACAGAGATT against MAPKAPK5, inactive: 0.489.
With UGCUCUGACCGGAAGAGAATT against NRGN, the median seed-adjusted z-score was inactive: -0.381.
Regarding CGACUACUCCGAGAUGAGATT against DLG5, the median seed-adjusted z-score is inactive: 0.467.
The result for CAAUUGGGUGCGUAACUUUTT against GBA reads inactive: -0.492; that for GCUUUGACCAGUGCGAUUATT against VCAN, inactive: 0.0927; that for GCACUUUAGAAACCGCUUUTT against HOXB13, inactive: -0.136.
Take GAAACUUCCUAAGUCGAAATT against FAM57A: the median seed-adjusted z-score was inactive: 0.0434.
For GGUCUUAACUUGCACCAGATT against ZNF230, the median seed-adjusted z-score is inactive: -0.203.
For CCACUUACCCUCAAAGAAATT against SLC4A5, the median seed-adjusted z-score was active: 1.3.
Turning to CCCGAUUAUUUUCGACCUATT against PHKB, the median seed-adjusted z-score was inactive: -0.142.
Consider GAAACUACACUGUGCAGUUTT against RBP5, for which the median seed-adjusted z-score was inactive: -0.748.
As to GGAAAAGGCUGUCUACAUUTT against CYSLTR1, the median seed-adjusted z-score was inactive: 0.364.
GGUCGGUAUGGGUCAGAAATT against ACTA1: the median seed-adjusted z-score is inactive: -0.103.
As to “CAAAAAGGGUGGACAAGUUTT against CSGALNACT1”, the median seed-adjusted z-score was inactive: -0.235.
On to GGCUGAUCAGUGUUCUAGATT against IDI1, for which the median seed-adjusted z-score was inactive: -0.0118.
Turning to GGCAAGAUCUCAACCGGCATT against TRPV6, the median seed-adjusted z-score is inactive: -0.511.
For GCCUACAGCCUGUCAGAGATT against DNAJB2, the median seed-adjusted z-score is inactive: 0.
As for ACAAGAUCGUGAAGCAGAATT against PPP5C, the median seed-adjusted z-score was inactive: 0.473.
As to GGUUAAAGGUUAUGGUCCATT against PROSC, the median seed-adjusted z-score was inactive: 0.173.
The result for GAAAUACACCAGUUGGUAUTT against FGF2 reads inactive: 0.0208; that for GCGAUUGUCUGCUUACAGATT against AHCTF1, inactive: -0.501.
As to GCCUUCCACGCUUUCCUGATT against RGS16, the median seed-adjusted z-score was inactive: 0.
With GAAUAUUCCUUACUAAUCATT against QSOX2, the median seed-adjusted z-score is inactive: 0.498.
With GUCUUUACUCUUCAACUGATT against THBS4, the median seed-adjusted z-score was inactive: -0.28.
In the case of GGAAACUUGUAACCGAUCATT against ACP1, the median seed-adjusted z-score was inactive: -0.277.
With CAAUUGUUCCUCAUCCUUATT against ZNF555 the figure was inactive: 0.141; with GCACUAUCGCAUCGACAAATT against SYK, inactive: 0.567.
For GUGGAAUGCCUAGAACUGATT against GCNT2, the median seed-adjusted z-score was inactive: -0.0107.
For the sequence GUCCAAGAAUAGAGAGAUATT against SGCE, the median seed-adjusted z-score was inactive: 0.202.
With GGACUGUACAACACUCUGATT against TGFB3 the figure was inactive: -0.354; with GGUUCUAACUUCGAAAAAUTT against DNAJC8, active: -1.62; with GGAGGACGGCUUCUACGAATT against KCNJ9, inactive: -0.0832.
For GCUUUCUGUUCUUCGGUAATT against SLC26A8, the median seed-adjusted z-score is inactive: -0.145.
With GUGUUCCGCUAUAUCCUCATT against KCTD21, the median seed-adjusted z-score is inactive: 0.0236.
Turning to GCAACGGCGGGAUUACAAATT against SUOX, the median seed-adjusted z-score is inactive: -0.0649.
Regarding GGUUCACUGGAACACCAAATT against CA2, the median seed-adjusted z-score was inactive: 0.328.
With GCUACAAUGGGUCCACUAATT against CYFIP2, the median seed-adjusted z-score is inactive: -0.322.

These data come from PubChem BioAssay AID1347426 (Functional Genomics Laboratory (NCATS/FGL), 2020).
